Assay [1] concerns the target T1, S. cerevisiae Prp38 D189A variant, full-length (S. cerevisiae) (UniProt Q00723).
T1 sequence: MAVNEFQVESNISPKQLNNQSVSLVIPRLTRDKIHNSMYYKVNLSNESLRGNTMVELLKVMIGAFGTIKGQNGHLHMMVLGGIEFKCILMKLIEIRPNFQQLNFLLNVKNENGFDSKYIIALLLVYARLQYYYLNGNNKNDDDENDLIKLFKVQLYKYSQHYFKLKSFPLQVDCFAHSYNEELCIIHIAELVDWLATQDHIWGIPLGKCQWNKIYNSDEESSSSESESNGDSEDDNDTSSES
As to the kind of experiment: SEC; analytical gel filtration of two proteins: 50 uM each, equimolar, incubated 30 min at 4 °C in SEC buffer (10 mM Tris-HCl pH 8.0, 300 mM NaCl, 0.1 mM EDTA, 1 mM DTT); Superdex 75 or Superdex 200 Increase columns at 4 °C; peak fractions by SDS-PAGE; both purified.

Assay [2] has as its target S. cerevisiae Prp38 (pre-mRNA processing factor 38 domain containing protein), full-length wild type (S. cerevisiae) (UniProt Q00723). Described as above.

This passage reports binding results from publication PMC5364666.

Where a chain is given by its changes, count along the chain named. Numbers in names are those of the source. Results are given in words; binding and its absence hold for the method and conditions named.

B1: S. cerevisiae Spp381 (pre-mRNA-splicing factor suppressor of prp38-1), full-length wild type (protein, UniProt P38282 1-291)
chain: MSFRHFKRRLDTSSADESSSADEEHPDQNVSLTEKSASLSHSDLGGEILNGTGKNRTPNDGQESNESDGSPESDESPESEESSDNSDSSDSDDMRPLPRPLFMKKKANNLQKATKIDQPWNAQDDARVLQTKKENMIKNIDKANQVAKNYETMKLRLNTNYSTNEELIKQCLLLDDNDEVDSEKERQKWFERQNERKQKHRRIQLAKQRESEEYEAKRFEAMQKGKDGNTKYDVILDKEKEKLDHKKQRSAEKVEKSHNNNRYKITRTKNVEFGDLGKNSRDYEETEYSVI
As to B1, in assay [1], the binding result is on record as “no binding (tested: 50 μM)”.

B2: S. cerevisiae Spp381 R192A variant, full-length (protein, UniProt P38282 1-291)
chain: B1 chain with R192A
With B2, the binding result in assay [2] is recorded as “no binding (tested: 50 μM)”.
